In all, about 400,000 compounds went through this assay and about 13,000 (3.2%) were called active. Inconclusive results, whose numbers are uncertain, are shown with a selection of clear calls. Calls come from the whole dose curve; as a rule, active = well fitted cell-killing curve with a large enough effect; inconclusive = small, poorly fitted or top-dose-only effect, or effect the other way; inactive = flat fitted curve, though single readings scatter. A potency beside an inconclusive call is a rough fit, not a confirmed value.
Test: qHTS assay for MDR1-selective chemotherapeutics: Primary screen using the drug-selected MDR subline cells KB-V1; note: nearly all actives have a fitted effect of over 60% in size
Conditions: KB-V1 MDR cells viability, CellTiter-Glo, 72 h; activity change, negative = cytotoxicity: at 46.1 µM (top of the series)
Outline: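 In this primary screen, KB-V1 cells overexpressing P-gp are incubated with library compounds (lowest to highest concentration) for 72 h at 37 degrees C before a luminescent ATP viability read.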
With `O=C(NCC1CCCO1)c1nn2c(c1Cl)NC(c1ccc(F)cc1)CC2C(F)(F)F` (configuration not stated) the Potency was inconclusive: 23.1 µM [cytotoxic, single point]. With `COC(=O)CNC(=O)CSc1ccccn1` the Potency was inconclusive: 7.31 µM [rising, partial curve, poor fit]. In the case of `CCCn1c(CCC(=O)Nc2cc(C(=O)OC)cc(C(=O)OC)c2)nc2cccnc21`, the “activity change, negative = cytotoxicity” value is reported as inactive: 2.77%. For `CCN1CCN(CCCOc2ccc(-c3ccccc3)cc2)CC1`, the Potency was inconclusive: 16.4 µM [cytotoxic, single point]. For `Cc1cc(C(=O)CN2C(=O)C(=O)N(CCC3=CCCCC3)C2=O)c(C)n1C`, the Potency was active: 23.1 µM. With `CCCn1c(CCC(=O)Nc2cc(OC)cc(OC)c2)nc2cccnc21` the “activity change, negative = cytotoxicity” value was inactive: 14.6%. For `COc1ccc(C)cc1S(=O)(=O)N1CCN(C(=O)c2ncoc2-c2cccc(C)c2)CC1`, the Potency was inconclusive: 9.2 µM [cytotoxic, partial curve]. For `CCCCOc1ccc(Cn2c(=O)sc3ccccc32)cc1OC`, the Potency was inconclusive: 29.1 µM [cytotoxic, single point]. In the case of `CCOC(=O)[C@]12CCCC=C1N(CCC1=CCCCC1)C(=O)[C@H](CC(=O)NCC13CC4CC(CC(C4)C1)C3)C2`, the Potency is reported as active: 18.4 µM. With `O=C1C=Cc2cccc3ccc(O)c1c23` the Potency was inconclusive: 11.6 µM [cytotoxic, partial curve]. With `Oc1ccccc1-c1n[nH]c(-c2ccccc2O)n1` the Potency was inconclusive: 9.2 µM [cytotoxic, partial curve, poor fit]. In the case of `COc1cc(C(CC(=O)O)n2cnnn2)ccc1OC(C)C` (configuration not stated), the “activity change, negative = cytotoxicity” value is reported as inactive: 20.8%. In the case of `CCn1c(=O)c(=O)[nH]c2cc(C(=O)N3CCN(Cc4ccc5c(c4)OCO5)CC3)ccc21`, the “activity change, negative = cytotoxicity” value is reported as inactive: 3.16%. In the case of `Cc1ccc(S(=O)(=O)NNC(=O)c2cc(C)c(C)cc2N)cc1`, the Potency is reported as active: 16.4 µM. With `CCOC(=O)C1=C(CN2CCN(C(=O)OCC)CC2)NC(=O)NC1c1ccc2c(c1)OCO2` (configuration not stated) the Potency was inconclusive: 13 µM [cytotoxic, partial curve]. With `C[C@H]1COC2=C1C(=O)C(=O)c1c2ccc2c1CCCC2(C)C` the “activity change, negative = cytotoxicity” value was inactive: -13.6%. In the case of `Cn1c(C(=O)N2COCC2(C)C)cc2c(=O)n3ccccc3nc21`, the Potency is reported as inconclusive: 16.4 µM [cytotoxic, partial curve, poor fit]. For `CCSc1nc(O)c(C2OC(=O)c3c2ccc(OC)c3OC)c(=O)n1-c1ccccc1` (configuration not stated), the Potency was inconclusive: 20.6 µM [cytotoxic, single point]. In the case of `O=C(CSc1nc(Nc2ccccc2)nc(N2CCOCC2)n1)Nc1ccccc1Cl`, the Potency is reported as active: 14.6 µM. In the case of `CSCC(=O)N1CCCC(CNC(=O)c2ccc(-c3ccccc3)cc2)C1` (configuration not stated), the “activity change, negative = cytotoxicity” value is reported as inactive: -9.56%. In the case of `Cc1ccc(NC(=O)CSc2nnnn2C2CCCC2)cc1S(=O)(=O)N1CCOCC1`, the “activity change, negative = cytotoxicity” value is reported as inactive: -27.7%. In the case of `CCOCC(=O)NC1CCc2cc(OC)c(OC)c(OC)c2-c2ccc(SC)c(=O)cc21` (configuration not stated), the Potency is reported as inconclusive: 0.206 µM [cytotoxic, full curve, poor fit]. In the case of `CN1CCN(c2nc(-c3ccccc3)ncc2S(=O)(=O)c2ccccc2)CC1`, the Potency is reported as inconclusive: 10.3 µM [cytotoxic, partial curve, poor fit]. With `Cc1ccc(NC2=CC(=O)CC(c3ccccc3)C2)cc1` (configuration not stated) the Potency was inconclusive: 2.59 µM [cytotoxic, full curve, poor fit]. With `O=S1(=O)CCOC[C@H](c2ccccc2)N1Cc1ccc(Cl)cc1Cl` the Potency was inconclusive: 25.9 µM [cytotoxic, single point]. For `O=C(CN1CCN(c2ccccn2)CC1)Nc1ccccc1Br`, the “activity change, negative = cytotoxicity” value was inactive: -23.6%. With `COc1ncccc1C(=O)N1CCCC(C(=O)Nc2cccc(-c3ccc(F)cc3)c2)C1` (configuration not stated) the Potency was inconclusive: 29.1 µM [cytotoxic, single point]. With `Cc1ccc(NC(=O)C2CCCN(S(=O)(=O)c3cccc4nsnc34)C2)cc1C` (configuration not stated) the “activity change, negative = cytotoxicity” value was inactive: -9.58%. With `c1ccc(CCNc2ccc3c(c2)Cc2ccccc2-3)nc1` the Potency was inconclusive: 16.4 µM [cytotoxic, partial curve, poor fit]. For `CCCN1CCN(c2nnc(-n3cccc3C(=O)Nc3cc(Cl)ccc3C)s2)CC1`, the “activity change, negative = cytotoxicity” value was inactive: 4.69%. In the case of `Cc1cccc(N=C2SC(C)CN2C(=O)CN2C(=O)NC3(CCCC3)C2=O)c1` (configuration not stated), the Potency is reported as inconclusive: 18.4 µM [cytotoxic, partial curve, poor fit]. With `COc1cc(/C=N/NC(=O)CC23CC4CC(CC(C4)C2)C3)cc(Br)c1OCC(=O)N(C)C` the “activity change, negative = cytotoxicity” value was inactive: -6.12%. For `Cc1cc(N2CCCC2=O)cc(C)c1CN1C(=O)c2ccccc2C1=O`, the Potency was inconclusive: 20.6 µM [cytotoxic, partial curve, poor fit]. For `C/C(=N\NC(=S)NCCc1ccccc1)c1ccc(C#N)cc1`, the “activity change, negative = cytotoxicity” value was inactive: -26.3%. With `O=C(COc1ccc([N+](=O)[O-])cc1)N1CCc2ccccc2C1` the Potency was inconclusive: 25.9 µM [cytotoxic, single point]. In the case of `CCc1ccccc1NC(=O)Nc1c(C)n(C)n(-c2ccccc2)c1=O`, the Potency is reported as inconclusive: 29.1 µM [rising, single point]. In the case of `Cc1cc(C(C)(C)C)oc1C(=O)N(CC(=O)NC1CCCC1)c1c(C)cccc1C`, the Potency is reported as inconclusive: 16.4 µM [cytotoxic, partial curve]. For `Cn1c(=O)c(C(=O)Nc2ccccn2)c(O)c2ccccc21`, the Potency was active: 2.31 µM. In the case of `COc1cc2[nH]c(=O)n(CCCC(=O)N3CC=C(c4ccccc4)CC3)c(=O)c2cc1OC`, the Potency is reported as inconclusive: 20.6 µM [cytotoxic, single point]. For `CC(C)OCCCNc1ncnc2sc3c(c12)CCCC3`, the “activity change, negative = cytotoxicity” value was inactive: -26.5%. For `CCc1nnc(NC(=O)CCC(=O)N2CCN(C3c4ccccc4-c4ccccc43)CC2)s1`, the Potency was inconclusive: 20.6 µM [cytotoxic, partial curve, poor fit]. With `Cc1nc2c(Br)cc(Br)cc2c(=O)n1-c1ccccc1NC1OCC(O)C(O)C1O` (configuration not stated) the Potency was inconclusive: 4.61 µM [rising, partial curve, poor fit]. In the case of `COC(=O)C1C(C(=O)OC)C1(c1ccccc1)c1ccccc1` (configuration not stated), the “activity change, negative = cytotoxicity” value is reported as inactive: 0.861%. For `O=C(NCc1cccc(F)c1)c1[nH]c(C(F)(F)F)nc1-c1ccccc1`, the Potency was inconclusive: 29.1 µM [cytotoxic, single point]. For `Nc1ccn(Cc2cccc(F)c2)n1`, the “activity change, negative = cytotoxicity” value was inactive: 29.5%. In the case of `N#CCCN1CCN(Cc2cc(-c3ccccc3)ccc2O)CC1`, the Potency is reported as active: 20.6 µM. In the case of `CCOC(=O)[C@]12CCCC=C1N(CCC1=CCCCC1)C(=O)[C@H](CC(=O)NCCc1ccccc1OC)C2`, the Potency is reported as inconclusive: 14.6 µM [cytotoxic, partial curve]. In the case of `COc1ccc(C(=O)NCC(c2ccco2)S(=O)(=O)c2ccc(F)cc2)cc1` (configuration not stated), the Potency is reported as inconclusive: 18.4 µM [cytotoxic, partial curve, poor fit]. In the case of `CCC(CO)Oc1cc(NCc2ccc(C(F)(F)F)cc2)c2ncn(C(C)C)c2c1` (configuration not stated), the “activity change, negative = cytotoxicity” value is reported as inactive: 16.5%. With `CC(C)(C)c1cc(C(=O)NN)n(Cc2ccc(F)cc2)n1` the “activity change, negative = cytotoxicity” value was inactive: -1.65%. In the case of `Cc1cc(C)cc(NC(=O)Nc2cc(-c3ccccc3)nn2C)c1`, the Potency is reported as inconclusive: 29.1 µM [rising, single point]. For `Cc1ccc(C)c(N2CCN(C(=O)CN3C(=O)COc4ccc(S(=O)(=O)N5CCCC5)cc43)CC2)c1`, the Potency was inconclusive: 9.2 µM [cytotoxic, partial curve]. With `O=C(CCOc1ccccc1)Nc1ccc(Cl)c(S(=O)(=O)N2CCOCC2)c1` the “activity change, negative = cytotoxicity” value was inactive: -6.97%. In the case of `N#CCCC(C#N)(c1cccnc1)N1CCOCC1` (configuration not stated), the “activity change, negative = cytotoxicity” value is reported as inactive: 26.1%. For `COc1ccc(C(=O)O)cc1S(=O)(=O)NCc1ccncc1`, the Potency was inconclusive: 3.66 µM [rising, partial curve, poor fit]. With `CCCCN(CCCC)CCCNC(=O)Cn1cc2c(n1)-c1c(oc(C(=O)N3CCCC3)c1C)CC2` the “activity change, negative = cytotoxicity” value was inactive: -23.4%. For `OCC[C@H]1C[C@@H](O)[C@H](O)[C@@]2(Cc3ccccc3CCO2)O1`, the Potency was inconclusive: 29.1 µM [rising, single point]. For `O=C1CCC(OCc2ccccc2)CCN1CC[C@@H](Sc1ccccc1)c1ccccc1` (some centres not stated), the Potency was inconclusive: 11.6 µM [cytotoxic, partial curve, poor fit]. For `O=C(Nc1ccccc1)O[C@@H]1C[C@H]2CCC(=O)N3CC[C@@H](C1)[C@@H]23`, the Potency was inconclusive: 29.1 µM [cytotoxic, partial curve, poor fit]. In the case of `O=C(NC1CCCCC1)N1CCN(C(c2ccccc2)c2ccccc2)CC1`, the Potency is reported as inconclusive: 20.6 µM [cytotoxic, single point]. In the case of `N=c1scc(-c2ccccc2)n1/N=C/c1ccco1`, the Potency is reported as inconclusive: 8.2 µM [cytotoxic, partial curve, poor fit]. With `COc1ccc(N(CC(=O)Nc2c(C)n(C)n(-c3ccccc3)c2=O)S(=O)(=O)c2ccc(C)cc2)cc1OC` the “activity change, negative = cytotoxicity” value was inactive: -15.4%.

Source: PubChem BioAssay AID1347076 (National Center for Advancing Translational Sciences (NCATS), 2019)
% is set by controls: 0 for no effect and ±100 for the full control effect; potency is the fitted concentration of half-maximal effect.
